The text below walks through data of patent EP0438519B1 (The Administrators of The Tulane Educational Fund, priority 1988, dated 1998).

This data set can be described thus: general procedure: Boc solid-phase peptide synthesis; Benzhydrylamine-polystyrene resin; diisopropylcarbodiimide (hydroxybenzotriazole for Gln, D-Phe). The settings on record: whole synthesis, scale 0.5 mmole.

With “D-Phe-Gln-Trp-Ala-Val-Gly- His-Leuψ[CH2NH]-D-Phe-NH2”, the isolated mass is 120 mg.
For “D-Phe-Gln-Trp-Ala-Val-Gly-His-Leuψ[CH2NH]-D-Phe-NH2”, the isolated mass came out at 120 mg.
